Our source for the CC50 values is publication PMC12043106, “Insight into antistaphylococcal effect of chlorinated 1-hydroxynaphthalene-2-carboxanilides” (ADMET & DMPK, 2025).

The nature of the series: in vitro. The protocol:
Cytotoxicity of the compounds was determined using an LDH assay kit (Roche, Mannheim, Germany) as described previously. Human monocytic leukemia THP-1 cells (European Collection of Cell Cultures, Salisbury, UK) were exposed for 24 h at 37 °C to various compound concentrations ranging from 0.37 to 30 μM in RPMI 1640 medium. For LDH assays, cells were seeded into 96-well plates (5×10^4 cells/well in 100 μL of culture medium) in triplicate in serum-free RPMI 1640 medium and measurements were taken 24 h after the treatment with the compounds. The maximum concentration of DMSO (Sigma) in the assays never exceeded 0.1 %. […] The median lethal dose values, LC50, were deduced through the production of a dose-response curve. All data from three independent experiments were evaluated using GraphPad Prism 5.00 software.

`O=C(O)c1cn(C2CC2)c2cc(N3CCNCC3)c(F)cc2c1=O` [CPX, ciprofloxacin, reference compound]: the CC50 at 24 h is 0.7 ± 0.09 µM.
